# Measurements taken from publication PMC6403367.
# Chains of the proteins cited; added tags and fusions are not shown.
# UniProt Q9EPW2: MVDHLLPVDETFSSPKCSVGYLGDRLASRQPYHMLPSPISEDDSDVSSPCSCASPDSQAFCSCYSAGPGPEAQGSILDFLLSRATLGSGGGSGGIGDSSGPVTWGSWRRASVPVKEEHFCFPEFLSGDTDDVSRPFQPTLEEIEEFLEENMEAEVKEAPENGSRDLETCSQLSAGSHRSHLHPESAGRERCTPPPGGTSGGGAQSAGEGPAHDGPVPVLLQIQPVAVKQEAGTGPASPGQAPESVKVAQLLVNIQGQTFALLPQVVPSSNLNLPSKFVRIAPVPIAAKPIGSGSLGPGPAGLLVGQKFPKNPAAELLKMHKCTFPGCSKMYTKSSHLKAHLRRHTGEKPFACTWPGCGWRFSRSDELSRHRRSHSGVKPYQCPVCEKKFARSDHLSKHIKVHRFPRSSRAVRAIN
# UniProt Q04211: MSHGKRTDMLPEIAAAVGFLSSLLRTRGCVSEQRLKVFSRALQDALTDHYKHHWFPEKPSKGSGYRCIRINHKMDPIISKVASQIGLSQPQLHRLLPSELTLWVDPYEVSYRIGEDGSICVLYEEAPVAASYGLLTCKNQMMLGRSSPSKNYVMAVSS
# These are yes or no findings as the source states them, for the method shown. Binding seen in cells or lysates may run through a third protein. Some entries that bind do so weakly or less than the wild type.
# Target: Kruppel-like factor 15 (KLF15) (mouse (endogenous in mouse liver)) (UniProt Q9EPW2)
# Experiment: co-IP; liver extracts of mice fed ad libitum or fasted for 24 h; immunoprecipitated with antibodies against BTG2 or KLF15 on protein A/G PLUS-Agarose, Western blot with the corresponding antibodies
substance,measurement,value
B-cell translocation gene 2 (BTG2) (from UniProt Q04211 1-158),binding,binds
